PubChem BioAssay AID1259308 | NCATS – 2017
Here is one part, drawn at random, of about 59,000 deposited reagents. About 1,510 of them (2.6%) were called active. 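Calls use total luciferase alone and ignore viability, so some active siRNAs may act by altering cell number.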 The numbers tell different reagents against one gene apart. Not all columns of the deposit are shown.

Purpose: 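Genes whose loss raises luciferase production in HEK293 cells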 (primary screen)
Cell system: human HEK293 embryonic kidney cells stably expressing firefly luciferase (HEK-CMV-Luc2-Hygro)
Reagent: single siRNA against human genes, 0.8 pmol siRNA per well
Timing: 72 h
Measurement: 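Reporter luminescence and viable-cell signal on separate replicate plates, given as percent of non-targeting control and median/MAD z-scores, plus per-cell luciferase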
Direction: total luciferase, z-score: higher = more reporter protein produced
Call rule: 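An siRNA counts as active if its total luciferase robust z-score exceeds 3; genes with two or more such siRNAs out of three were retested with fresh siRNAs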
Meaning of the calls: active = raised luciferase; inactive = no rise

| target | siRNA no. | total luciferase, z-score | activity call |
| --- | --- | --- | --- |
| SEMA3A | 1 | 0.363 | inactive |
| SEMA3A | 2 | 0.888 | inactive |
| SEMA3A | 3 | 0.0129 | inactive |
| UBE2D2 | 1 | -0.358 | inactive |
| UBE2D2 | 2 | 0.231 | inactive |
| UBE2D2 | 3 | 1.94 | inactive |
| LY6G5C | 1 | 1.31 | inactive |
| LY6G5C | 2 | 0.915 | inactive |
| LY6G5C | 3 | -1.3 | inactive |
| GRB10 | 1 | 0.302 | inactive |
| GRB10 | 2 | -1.43 | inactive |
| GRB10 | 3 | -1.23 | inactive |
| TXNRD1 | 1 | 1.11 | inactive |
| TXNRD1 | 2 | -1.05 | inactive |
| TXNRD1 | 3 | -1.36 | inactive |
| WNT2 | 1 | 1.29 | inactive |
| WNT2 | 2 | 1.76 | inactive |
| WNT2 | 3 | 3.97 | active |
| YJEFN3 | 1 | -1.18 | inactive |
| YJEFN3 | 2 | -2.64 | inactive |
| YJEFN3 | 3 | -0.133 | inactive |

A run of entries from the list above, as a working copy:
| target | siRNA no. | total luciferase, z-score | activity call |
| --- | --- | --- | --- |
| TXNRD1 | 2 | -1.05 | inactive |
| TXNRD1 | 3 | -1.36 | inactive |
| WNT2 | 1 | 1.29 | inactive |
| WNT2 | 2 | 1.76 | inactive |
| WNT2 | 3 | 3.97 | active |
| YJEFN3 | 1 | -1.18 | inactive |
| YJEFN3 | 2 | -2.64 | inactive |

Additional results follow.
| target | siRNA no. | total luciferase, z-score | activity call |
| --- | --- | --- | --- |
| NOS1AP | 1 | 0.12 | inactive |
| NOS1AP | 2 | -0.0188 | inactive |
| NOS1AP | 3 | -0.498 | inactive |
| CYLD | 1 | 1.84 | inactive |
| CYLD | 2 | 1.82 | inactive |
| CYLD | 3 | 2.29 | inactive |
| MAF1 | 1 | -0.598 | inactive |
| MAF1 | 2 | -1.86 | inactive |
| MAF1 | 3 | -0.456 | inactive |
| TRIM72 | 1 | -0.145 | inactive |
| TRIM72 | 2 | 6.97 | active |
| TRIM72 | 3 | -1.14 | inactive |
| GATA3-AS1 | 1 | 1.57 | inactive |
| GATA3-AS1 | 2 | 0.854 | inactive |
| GATA3-AS1 | 3 | -0.849 | inactive |
| INO80B | 1 | 0.681 | inactive |
| INO80B | 2 | 2.26 | inactive |
| INO80B | 3 | 2.15 | inactive |
| PSMC3 | 1 | -0.697 | inactive |
| PSMC3 | 2 | -1.8 | inactive |
| PSMC3 | 3 | -0.46 | inactive |
| ALK | 1 | 0.725 | inactive |
| ALK | 2 | -2.06 | inactive |
| ALK | 3 | -0.69 | inactive |
| RPS26P50 | 1 | -2.71 | inactive |
| RPS26P50 | 2 | -2.94 | inactive |
| RPS26P50 | 3 | -3.76 | inactive |
| CAVIN1 | 1 | 2.13 | inactive |
| CAVIN1 | 2 | 0.563 | inactive |
| CAVIN1 | 3 | 0.546 | inactive |
| CAPN1 | 1 | 2.78 | inactive |
| CAPN1 | 2 | -1.72 | inactive |
| CAPN1 | 3 | 1.45 | inactive |
| MTFP1 | 1 | 1.25 | inactive |
| MTFP1 | 2 | -1.16 | inactive |
| MTFP1 | 3 | 1.88 | inactive |
